Paper doi:10.1101/2025.08.17.670746
No constants are given. Whether binding was seen depends on the method and setting. Some binding calls cover weakened binding; strength is not graded here. Sequences can lack the tags named with a protein.

Target: CDM1, yeast two-hybrid bait and prey fusions (Arabidopsis thaliana) (UniProt Q9C9F5)
Experiment: two-hybrid

- binding: binds
B1: CDM1, yeast two-hybrid bait and prey fusions (protein, UniProt Q9C9F5 1-308)
chain: MENKIAPFSYSGSSAGNSSSGGVVSSSLYSDQLYKSTRNIMQQRQDMVNREALCYTRLHEASLEAEALRLENTELRSMNLRLKNELNSLIRSSIQNRFDHRSPLRMLSNLSIGGNDADEVENQNRTVNRDDVNDKSPTSVMENEDLNRSSLPKSISVRSNGYSKASQGGGGAAAQSGKPRGTVTKPGTCGQVSTTQKVYVRGGGKKEDQEEEIEVEVYNQGMTKTELCNKWQETGTCPYGDHCQFAHGIKELRPVIRHPRYKTEVCRMVLAGDNCPYGHRCHFRHSLSEQEKLVAAGFKPKSSLKLIT
